Results taken from US6696267B2, “Methods and compositions for screening Icrac modulators” (Warner-Lambert Company, priority 2000, dated 2004).

Tested on: NFAT-β-lactamase Jurkat cells
Test: CCF2-AM loading capacity of NFAT-β-lactamase Jurkat cells (F.U. at 535 nm)
Conditions: 50 μM, data not shown

COC(=O)C1=C(C)NC(C)=C(C(=O)OC)C1c1ccccc1[N+](=O)[O-] [Nifedipine]
Toxic effects (weak loading): Toxic effects were detected
